Experimental data reported in the supplement of paper PMC12819154, “High-throughput peptide-centric local stability assay extends protein–ligand identification to membrane proteins, tissues and bacteria” (Nature Structural & Molecular Biology, 2025).
The other results are listed elsewhere or left out. Small differences around the control level are noise.

Sequences of proteins named here, by UniProt entry; tags and fusion partners are left off. A change or cut given only in a name is not applied to a line headed by its entry.
UniProt O43681: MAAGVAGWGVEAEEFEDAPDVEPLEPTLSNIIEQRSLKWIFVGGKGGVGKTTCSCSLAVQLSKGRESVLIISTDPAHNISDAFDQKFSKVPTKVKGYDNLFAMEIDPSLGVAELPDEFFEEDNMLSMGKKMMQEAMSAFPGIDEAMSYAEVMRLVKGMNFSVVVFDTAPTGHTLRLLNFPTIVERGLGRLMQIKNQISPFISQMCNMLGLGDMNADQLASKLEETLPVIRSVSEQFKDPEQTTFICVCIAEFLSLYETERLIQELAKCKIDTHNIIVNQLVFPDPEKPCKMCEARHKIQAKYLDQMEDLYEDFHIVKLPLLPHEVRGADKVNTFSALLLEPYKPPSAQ
UniProt O15523: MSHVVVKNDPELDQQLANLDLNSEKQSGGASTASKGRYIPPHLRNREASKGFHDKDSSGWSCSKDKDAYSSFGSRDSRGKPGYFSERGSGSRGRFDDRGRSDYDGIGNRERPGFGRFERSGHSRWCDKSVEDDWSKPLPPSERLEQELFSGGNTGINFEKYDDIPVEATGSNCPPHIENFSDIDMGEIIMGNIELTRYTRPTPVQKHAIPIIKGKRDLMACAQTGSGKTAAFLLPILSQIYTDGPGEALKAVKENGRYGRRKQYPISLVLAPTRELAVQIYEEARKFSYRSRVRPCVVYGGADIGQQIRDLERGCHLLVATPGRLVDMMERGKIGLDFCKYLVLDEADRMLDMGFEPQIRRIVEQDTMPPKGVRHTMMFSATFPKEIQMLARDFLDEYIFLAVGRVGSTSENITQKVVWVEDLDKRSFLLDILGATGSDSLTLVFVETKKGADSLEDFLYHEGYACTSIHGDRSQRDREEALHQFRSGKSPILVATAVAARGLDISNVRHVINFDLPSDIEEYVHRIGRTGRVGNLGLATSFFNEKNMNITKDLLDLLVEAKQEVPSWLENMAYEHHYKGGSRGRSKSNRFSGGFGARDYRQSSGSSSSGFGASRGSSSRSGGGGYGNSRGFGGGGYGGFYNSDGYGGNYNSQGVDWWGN
UniProt O75175, whole entry: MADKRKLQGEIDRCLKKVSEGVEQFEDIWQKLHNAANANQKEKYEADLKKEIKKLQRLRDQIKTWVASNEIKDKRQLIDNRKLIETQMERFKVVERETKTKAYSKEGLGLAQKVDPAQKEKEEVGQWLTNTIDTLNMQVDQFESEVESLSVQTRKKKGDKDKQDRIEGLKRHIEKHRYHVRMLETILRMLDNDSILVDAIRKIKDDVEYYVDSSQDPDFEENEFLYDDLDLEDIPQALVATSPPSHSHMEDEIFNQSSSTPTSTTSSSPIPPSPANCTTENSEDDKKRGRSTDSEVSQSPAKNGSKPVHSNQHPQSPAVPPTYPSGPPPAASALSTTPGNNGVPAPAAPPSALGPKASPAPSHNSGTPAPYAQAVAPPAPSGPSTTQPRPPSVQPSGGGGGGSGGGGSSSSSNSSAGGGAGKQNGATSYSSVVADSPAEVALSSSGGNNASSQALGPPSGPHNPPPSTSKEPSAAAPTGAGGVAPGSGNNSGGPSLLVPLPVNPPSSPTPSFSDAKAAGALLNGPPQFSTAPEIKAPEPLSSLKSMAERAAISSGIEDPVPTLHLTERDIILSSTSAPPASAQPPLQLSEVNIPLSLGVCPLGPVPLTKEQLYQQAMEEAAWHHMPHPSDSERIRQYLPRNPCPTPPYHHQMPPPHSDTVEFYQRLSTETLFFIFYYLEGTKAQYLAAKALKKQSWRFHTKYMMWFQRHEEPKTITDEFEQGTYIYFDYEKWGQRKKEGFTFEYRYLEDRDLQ
UniProt O43809, whole entry: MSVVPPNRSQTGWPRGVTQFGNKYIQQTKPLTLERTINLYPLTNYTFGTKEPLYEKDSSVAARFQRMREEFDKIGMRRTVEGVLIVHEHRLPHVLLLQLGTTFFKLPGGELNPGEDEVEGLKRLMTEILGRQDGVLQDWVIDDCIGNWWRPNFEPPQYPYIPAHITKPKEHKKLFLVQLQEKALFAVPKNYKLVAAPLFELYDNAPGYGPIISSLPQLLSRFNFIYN
UniProt O75150, whole entry: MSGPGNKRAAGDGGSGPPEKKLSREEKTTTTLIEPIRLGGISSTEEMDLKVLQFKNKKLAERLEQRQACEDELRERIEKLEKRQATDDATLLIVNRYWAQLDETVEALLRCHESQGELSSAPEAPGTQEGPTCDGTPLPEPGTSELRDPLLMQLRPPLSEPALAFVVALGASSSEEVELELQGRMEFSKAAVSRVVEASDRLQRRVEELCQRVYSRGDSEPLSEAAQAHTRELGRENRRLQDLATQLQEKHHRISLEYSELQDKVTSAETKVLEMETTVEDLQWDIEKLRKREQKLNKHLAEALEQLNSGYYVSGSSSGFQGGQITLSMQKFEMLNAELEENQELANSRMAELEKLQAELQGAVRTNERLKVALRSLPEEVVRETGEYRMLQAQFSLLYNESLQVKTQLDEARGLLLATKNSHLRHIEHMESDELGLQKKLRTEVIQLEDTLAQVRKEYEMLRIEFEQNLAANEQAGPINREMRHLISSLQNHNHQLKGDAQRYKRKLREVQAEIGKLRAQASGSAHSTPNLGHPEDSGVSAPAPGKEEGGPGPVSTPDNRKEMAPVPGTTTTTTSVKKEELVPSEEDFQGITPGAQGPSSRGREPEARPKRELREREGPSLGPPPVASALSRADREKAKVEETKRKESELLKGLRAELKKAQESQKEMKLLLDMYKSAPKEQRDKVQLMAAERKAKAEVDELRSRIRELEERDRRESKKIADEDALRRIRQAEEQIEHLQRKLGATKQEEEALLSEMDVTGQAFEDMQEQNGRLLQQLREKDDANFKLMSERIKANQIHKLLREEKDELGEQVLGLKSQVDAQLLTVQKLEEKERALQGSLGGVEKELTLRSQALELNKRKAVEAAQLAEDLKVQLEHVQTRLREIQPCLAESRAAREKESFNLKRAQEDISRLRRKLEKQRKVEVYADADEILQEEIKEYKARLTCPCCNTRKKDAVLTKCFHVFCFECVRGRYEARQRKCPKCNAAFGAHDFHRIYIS
UniProt O43598: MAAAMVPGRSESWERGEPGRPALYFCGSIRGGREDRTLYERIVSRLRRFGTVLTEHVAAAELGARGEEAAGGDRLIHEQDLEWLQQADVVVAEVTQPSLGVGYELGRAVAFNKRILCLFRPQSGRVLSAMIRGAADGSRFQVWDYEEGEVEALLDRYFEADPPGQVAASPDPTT
UniProt O43447: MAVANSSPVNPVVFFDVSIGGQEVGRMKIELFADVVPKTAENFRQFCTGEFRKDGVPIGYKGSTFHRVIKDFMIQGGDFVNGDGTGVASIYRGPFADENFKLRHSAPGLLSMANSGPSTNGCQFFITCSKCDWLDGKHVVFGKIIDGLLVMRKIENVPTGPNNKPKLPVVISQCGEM

Compound: CN[C@@H]1C[C@H]2O[C@@](C)([C@@H]1OC)n1c3ccccc3c3c4c(c5c6ccccc6n2c5c31)C(=O)NC4 [staurosporine]
Assay: log2 fold change of tryptic peptide abundance, ligand vs vehicle (limited proteolysis) (log2 ratio); higher = more trypsin-susceptible (destabilized)
Conditions: ligand concentration: 20 uM; sample: K562 cleared lysate; digestion: 4 min, 22 C (HT-PELSA RT4min, Orbitrap Astral)

Target | log2 fold change
ASNA1 (peptide sequence: LEETLPVIR, peptide start residue: 222) (UniProt O43681) | 0.419
UniProt O15523 (peptide sequence: MLDMGFEPQIRR, peptide start residue: 352) | 0.213
CNOT3 (peptide sequence: KLQGEIDR, peptide start residue: 6) (UniProt O75175) | 0.182
NUDT21 (peptide sequence: SQTGWPRGVTQFGNK, peptide start residue: 9) (UniProt O43809) | 0.0182
RNF40 (peptide sequence: KVEVYADADEILQEEIKEYK, peptide start residue: 924) (UniProt O75150) | 0.393
UniProt O43598 (peptide sequence: ILCLFRPQSGR, peptide start residue: 115) | 0.175
PPIH (peptide sequence: KIENVPTGPNNKPK, peptide start residue: 153) (UniProt O43447) | 0.39
